# Test results published in patent US20250109275A1, “AMINE FATTY ACID ADDUCTS AS TIRE COMPOUNDING ADDITIVES” (priority 2023, published 2025).
# Columns and labels:
# [1] = Dispersion, ASTM D7723 (Macro-Dispersion of Fillers in Compounds); settings: additive 3.0 PHR
# [2] = Abrasion resistance, ASTM D5963 (Rotary Drum Abrader), non-rotating; settings: for Abrasion Resistance Index, %: fixed (non-rotating) method
# [3] = Payne Effect, ASTM D8059 strain sweep; settings: for G′@0.100%: 0.100% strain; for G′@1.00%: 1.00% strain; for G′@100.000%: 100.000% strain; for Payne Effect (0.1% to 100%): strain sweep 0.1% to 100%; for Payne Effect (1.0% to 100%): strain sweep 1.0% to 100%
Molecule,Dispersion Percent (%) [1],"Abrasion Resistance Index, % [2]",G′@0.100% [3],G′@1.00% [3],G′@100.000% [3],Payne Effect (0.1% to 100%) [3],Payne Effect (1.0% to 100%) [3],"abrasion resistance relative to the controls, in words [2]",% Difference from Control 1 ([3]; Payne Effect (0.1% to 100%)),% Difference from Control 1 ([3]; Payne Effect (1.0% to 100%))
"CCCCCCCC/C=C\CCCCCCCC(=O)NCCNCCN [Inventive Ex. 1, diethylenetriamine (DETA) oleic acid amidoamine]",92%,144%,393 1-Pa,378 kPa,113 kPa,280 kPa,264 1-Pa,–,–,–
"CCCCCCCC/C=C\CCCCCCCC1=NCCN1CCN [Inventive Ex. 2, diethylenetriamine (DETA) oleic acid imidazoline]",93%,153%,420 1-Pa,392 kPa,116 kPa,304 kPa,276 1-Pa,–,–,–
"CCCCCCCC/C=C\CCCCCCCC(=O)NCCNCCNC(=O)CCCCCCC/C=C\CCCCCCCC [Inventive Ex. 3, diethylenetriamine (DETA) oleic acid bisamide]",95%,–,416 1-Pa,403 kPa,118 kPa,298 kPa,285 1-Pa,–,–,–
"CCCCCCCC/C=C\CCCCCCCC(=O)NCCCN(C)C [Inventive Ex. 6, dimethylaminopropylamine (DMAPA) oleic acid amidoamine]",97%,–,450 1-Pa,419 kPa,119 kPa,331 kPa,300 1-Pa,–,–,–
tetraethylenepentamine (TEPA) oleic acid amidoamine [Inventive Ex. 5],94%,–,–,–,–,325 kPa,316 1-Pa,slightly lower in abrasion resistance,−4.28%,2.36%
